Reference: PubChem BioAssay AID1259274 (Sanger Institute, 2017)
The whole screen tested 794 reagents; shown is a random part of them. In the full data, 11 (1.4%) got an active call. 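Calls rest on knock-down without drug only; synergy scores with anchor drugs were not used for the essential call.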 No viability above 1 is reported: the scale is capped. Not all columns of the deposit are shown. The record does not give: the amount of reagent, the time to read-out.

Purpose: 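siRNA screen of kinases for partners that act in synergy with targeted drugs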 (primary screen)
Cells: human RKO colorectal cancer cells
Knock-down reagent: siRNA pool against human genes
Treatment: anchor drugs BYL719 at 1 µM, cetuximab at 5 µg/ml or trametinib at 10 nM; DMSO vehicle as the no-drug arm
Read-out: 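Viability as fraction of non-targeting pool 2 control, averaged across replicates, robust z-score for single knock-down, and a combination synergy score per anchor drug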
Direction: viability z-score, siRNA alone: higher = more viable cells; low values mean essential gene; viability, siRNA alone, vehicle: higher = more viable cells; synergy score with BYL719: higher = stronger combined killing with the drug
Hit rule: 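Essential when the robust viability z-score with siRNA only falls below -3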
Meaning of the calls: active = essential when knocked down alone; inactive = no change alone

no.	gene	viability z-score, siRNA alone	viability, siRNA alone, vehicle (fraction of control)	synergy score with BYL719	Call
1	FN1	0.0762	0.905	-0.123	inactive
2	PRPS2	0.0119	0.899	-0.132	inactive
3	PIK3C2G	-0.373	0.866	-0.0358	inactive
4	GATA3	0.196	0.915	-0.0146	inactive
5	PRP4K	-0.067	0.892	0.00355	inactive
6	GK2	1.06	0.989	-0.0325	inactive
7	NRBP1	-0.738	0.835	-0.128	inactive
8	MAK	0.155	0.911	-0.0887	inactive
9	CREBBP	-3.24	0.621	0.051	active
10	PRKAB2	-0.00849	0.897	-0.0581	inactive
11	NUAK2	0.799	0.966	0.0174	inactive
12	SKAP1	1.19	1	-0.0376	inactive
13	PDGFRL	0.0925	0.906	-0.0776	inactive
14	DAPK3	0.907	0.976	-0.0421	inactive
15	PLK4	0.0249	0.9	-0.0838	inactive
16	MAST3	0.508	0.942	-0.114	inactive
17	TP53	-0.235	0.878	-0.0497	inactive
18	CDC7	1.19	1	0.0596	inactive

Continued; the last 4 above are carried over.
no.	gene	viability z-score, siRNA alone	viability, siRNA alone, vehicle (fraction of control)	synergy score with BYL719	Call
15	PLK4	0.0249	0.9	-0.0838	inactive
16	MAST3	0.508	0.942	-0.114	inactive
17	TP53	-0.235	0.878	-0.0497	inactive
18	CDC7	1.19	1	0.0596	inactive
19	ITPKC	1.19	1	0.00418	inactive
20	PRKAA2	0.0479	0.902	-0.188	inactive
21	RET	-0.284	0.874	-0.113	inactive
22	NEK10	0.376	0.93	-0.0437	inactive
23	KSR2	-1.95	0.731	-0.0488	inactive
24	CAD	-0.968	0.815	-0.039	inactive
25	SBK1	1.19	1	-0.0247	inactive
26	PTPN11	0.402	0.932	-0.0748	inactive
27	EGFR	0.0718	0.904	-0.0669	inactive
28	RPS6KA1	-0.0276	0.896	-0.0331	inactive
29	DGKG	0.595	0.949	-0.0318	inactive
30	PKN1	0.698	0.958	-0.0344	inactive
31	PRKACG	-0.139	0.886	-0.25	inactive
32	HIPK2	-0.714	0.837	-0.0367	inactive
33	MAP3K19	-0.78	0.831	-0.0494	inactive
34	CUL1	-0.921	0.819	-0.117	inactive
35	STK33	1.19	1	-0.0183	inactive
36	LTK	-0.236	0.878	0.00838	inactive
37	PIP4K2A	0.452	0.937	-0.118	inactive
38	PANK3	1.19	1	-0.00275	inactive
39	STK40	-0.262	0.876	-0.000721	inactive
40	KALRN	0.252	0.92	-0.102	inactive
41	AURKB	0.331	0.926	0.0368	inactive
42	PHKG1	0.691	0.957	-0.0423	inactive
43	NEK8	-1.63	0.759	-0.0881	inactive
44	CAMK1D	1.05	0.988	-0.0367	inactive
45	PIP4K2B	0.506	0.941	-0.0428	inactive
46	TNNI3K	0.998	0.983	-0.00696	inactive
47	MAPKAPK3	-0.767	0.832	-0.0486	inactive
48	CDKL3	1.19	1	0.0881	inactive
49	CDK19	1.19	1	-0.103	inactive
50	CALM1	0.744	0.962	-0.0621	inactive
